Whole data set: some 33,000 sequences, median “E-score (-0.5 to 0.5)” near -0.0034, cut for the highest 2% near 0.25. This is one part of the list.
molecular target: T1, Yap3 (UniProt P38749); assay: PBM E-score (8-mer binding enrichment) (E-score (-0.5 to 0.5)); higher = stronger / more preferred TF binding; details: protein concentration: 100 nM; construct: GST-full length
T1 sequence: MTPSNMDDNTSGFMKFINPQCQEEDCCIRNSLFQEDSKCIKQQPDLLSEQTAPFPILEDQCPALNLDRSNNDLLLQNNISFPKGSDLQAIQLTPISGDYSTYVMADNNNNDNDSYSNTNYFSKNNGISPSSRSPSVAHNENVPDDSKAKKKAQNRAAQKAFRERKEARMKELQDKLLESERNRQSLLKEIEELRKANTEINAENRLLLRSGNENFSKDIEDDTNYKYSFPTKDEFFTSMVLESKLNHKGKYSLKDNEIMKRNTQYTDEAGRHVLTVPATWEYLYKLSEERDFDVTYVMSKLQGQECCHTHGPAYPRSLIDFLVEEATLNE
In short: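 PURExpress in vitro transcription/translation supplied GST-tagged yeast transcription factors, either full-length or DNA-binding domain. Applied at about 100-200 nM to universal all-10-mer Agilent arrays double-stranded by primer extension, the bound protein was detected with fluorescent anti-GST. E-scores, modified Wilcoxon-Mann-Whitney statistics, were given by the Universal PBM Analysis Suite to ungapped eight-base words pooled with their reverse complements after masliner normalisation.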

Sequence | PBM E-score
CAATGCGA | 0.0204
AGGGACAG | -0.189
CCACCCCG | -0.167
CCTCAAAC | 0.0235
GAAGAGGA | -0.175
ACTCTTCT | -0.0255
AGGTCCGA | -0.023
CTAGCTCC | -0.13
AACAATGA | 0.124
CCCTCCCC | -0.043
ATTCTAAG | 0.083
AATGTCTC | 0.00289
ATGCCGCA | 0.00572
ACCTGGAA | 0.18
CATTCCCA | 0.0633
GAGATTGA | 0.0384
ACCATAAG | -0.0758
ATATCTGA | 0.122
AGACGACA | 0.149
GAATATTA | 0.263
GGGCGTAC | -0.0274
TTACCTAA | 0.281
GTTGAAGA | 0.0575
CTGCGGTA | -0.0714
ACCATTTA | 0.075

Sequence | PBM E-score
CCAATGCG | -0.0417
GACCAAGA | 0.0919
CAGACGTA | -0.172
CAGGGATA | 0.00466
TTCACAAA | 0.0913
CGCACGTA | -0.0271
ACGCCCCC | -0.256
CCCAGCTA | -0.141
GCTCATCC | -0.107
AAACCGCC | -0.0396
AGTGCCTC | -0.229
GAGAACTC | -0.0476
AAACGCAC | 0.0419
ATCGTACG | 0.107
AACAGCCC | -0.115
CGCGATAG | 0.105
ATCTATGC | 0.108
TCTCGTCA | 0.0984
CCGACTAA | -0.0236
GATCTCAC | -0.00137
AAGATCAA | 0.0574
GACACTAA | 0.064
CTCCGCGC | -0.114
AGGGTCTC | -0.16
CTGCATGC | 0.0391

Sequence | PBM E-score
AATAGCCA | 0.0509
AATTAATC | 0.0963
GTTGCAAA | 0.129
AAGGGATG | 0.0144
CGCTGCTA | -0.0611
TCCACCGA | -0.105
ACGTCCAA | 0.129
GTTGGTAA | 0.149
GAGGCAAC | -0.208
ACGATTCG | 0.0411
GGCTTAAC | 0.149
ATGAGCGG | -0.058
CGTGGAGA | 0.00966
CAATGGGC | -0.0644
CCCCTCGA | -0.131
CCCAGGTA | -0.154
TCTGGAAA | 0.0221
AGAGAGTA | 0.0894
GCTTATAC | 0.0794
ATCAGACG | -0.142
ACTGCGGG | -0.169
CCCAATAA | 0.0295
ACGAGGGG | -0.309
GCGTTGAC | -0.0443
AGAATAGC | 0.0507

Sequence | PBM E-score
TGGAGCAA | 0.0378
ATCCTCGG | 0.134
AGTCGTAC | -0.098
AAACACAT | 0.0277
ATCTGCTC | 0.0168
AGGGCCCT | -0.12
TACTGCTA | 0.0241
AAATGACT | -0.0271
GCAGGTTA | -0.0925
CAAGTGGG | -0.148
CACCCGTC | -0.00816
AAACGCGC | -0.0832
CGTGTGCA | 0.0539
AACAACAA | 0.259
CAACGGCC | -0.133
AAGTGTAA | 0.00716
ACTCACTG | 0.0421
AATGTGAC | 0.145
GAGCGGAA | 0.1
AGATCCAC | 0.0145
AGGACTAA | 0.0347
CACGAGGG | -0.29
AGCCATTG | 0.114
AAAGTCAT | 0.0714
AGCAAGGA | -0.0831

Part of the list above, as labelled records:
ATGCCGCA
  PBM E-score: 0.00572
ACCTGGAA
  PBM E-score: 0.18
CATTCCCA
  PBM E-score: 0.0633
GAGATTGA
  PBM E-score: 0.0384

Some of the entries so far, with tabs:
Sequence	PBM E-score
TGGAGCAA	0.0378
ATCCTCGG	0.134

Next entries.

Sequence | PBM E-score
ACAGGTAG | 0.0469
CTTAGACA | -0.112
ACTCATAC | 0.0362
AAGGTCTA | -0.107
AATCGCAT | 0.112
ATTGAAGC | -0.0735
CCAACACA | 0.144
TATTTGAA | 0.157
GCCCAGAA | -0.0812
CCTTAGCG | -0.0416
CTAGTAGC | -0.0823
CCAGCGGC | -0.0373
AAAAAGGT | 0.0468
AAGTAACA | 0.235
GCCTTGAC | -0.125
CCTGCTCA | -0.113
CCGCTGAA | -0.075
ACTACGAG | 0.0301
CGTGTGTA | 0.172
CACTTTTA | 0.102
CGCCTCAA | 0.0431
AATCCGGA | 0.256
AATGCGTG | 0.186
ACGCCGCC | -0.198
AGTGAGTA | 0.271

Sequence | PBM E-score
GTTAGACA | 0.227
AACGCGAA | 0.298
GTCGAGTA | -0.00233
CTCATCTC | 0.157
CGGTGACG | -0.021
GCGCGCAC | 0.0874
GGCATGAC | -0.118
TACTAATA | 0.267
ATAACTAT | 0.0705
TCCATCGA | 0.0124
TGCGCGAA | 0.156
CAATACCA | 0.121
TCTACTAA | 0.212
AAATCGCG | 0.105
GGTAGAGA | 0.0626
CGTATTTC | 0.113
GTCCGGTA | -0.0675
ATTTACCG | 0.203
AACCTCAA | 0.0262
CATATGCG | 0.115
GGCTCTTA | -0.124
GGGTTGTA | -0.0576
GTACCAAA | 0.172
CGAGGACG | -0.0782
ATGGGGTA | 0.0129

Sequence | PBM E-score
TCGGAAGA | -0.0733
ATGGATCC | 0.125
GATTCGAC | 0.00253
ATTGTAGA | 0.206
TAGTAGAA | -0.00059
GGGCTTAA | -0.232
GCGGCGAA | -0.0178
CCATACGC | 0.147
AGTGGTTA | 0.142
AGGGTAGG | -0.047
AAGCCTTA | -0.103
GTCGTGCA | -0.0612
AAAGACTG | -0.0469
AGTTATTC | 0.096
CTGGGGAC | -0.357
GGGGTACC | -0.385
ATACAGTG | 0.192
ACTTGGTA | 0.0764
ACTTTACT | 0.284
ACGGAGCA | -0.0147
GAGATCGA | 0.0135
GCTGACCC | -0.278
